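Uptake of anthrax lethal toxin into cultured cells, read by FRET (460/530 nm ratio) and reported from the 460 nm channel; the cell line is not named here.
Each compound was tested as a concentration series from about 0.0005 to 40 µM.
The number is the fitted AC50 of the 460 nm signal alone; lower values mean a more potent effect. A falling signal goes with compounds filed as inhibitors or cytotoxic, a rising one with activators or fluorescent compounds (inferred from the filed classes).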

Values are in µM.
Common to all entries: measured here: 460 nm channel.
This is a side read-out of the assay, for part of the compounds, not drawn at random.
A potency from a partial, single-point or poor curve is only a rough figure.
The first word of each remark tells which way the curve ran; it can be opposite to the aim of the assay.

Compound,AC50 (µM),remark
CC(=O)O[C@H]1C(=O)[C@@]2(C)[C@H]([C@H](OC(=O)c3ccccc3)[C@]3(O)C[C@H](OC(=O)[C@H](O)[C@@H](NC(=O)c4ccccc4)c4ccccc4)C(C)=C1C3(C)C)[C@]1(OC(C)=O)CO[C@@H]1C[C@@H]2O,0.001585,"falling, full curve, poor fit"
COc1ccccc1NC(=O)N1CCCC1C(=O)Nc1ccc2c(c1)OCO2 (configuration not stated),0.5012,"rising, full curve, poor fit"
O=C1CN(C(=O)c2cccs2)c2ccccc2N1,0.01,"rising, full curve"
Cc1ccc(CNC(=O)c2oc3ccc(S(=O)(=O)N4CCC5(CC4)OCCO5)cc3c2C)cc1,7.943,"falling, partial curve"
CCn1c2ccccc2c2cc(NC(=O)CSc3nnc(C4CC4)n3Cc3ccco3)ccc21,15.85,"falling, single point"
COc1ccc(-c2nc(-c3ccc(NC(=O)c4ccncc4)cc3)no2)cc1OC,3.981,"falling, partial curve"
O=C(OCC(O)CN1CCCCC1)C12CC3CC(CC(C3)C1)C2 (configuration not stated),5.012,"falling, partial curve"
CC1Cc2cc(-c3csc(NC(=O)Cc4cccs4)n3)ccc2N1S(C)(=O)=O (configuration not stated),6.31,"falling, partial curve"
CCN(CCO)C[C@H]1CCC[C@H]2CCCC[C@@H]21,0.1995,"falling, full curve"
CCc1ccccc1NC(=O)c1cc2sccc2n1C,12.59,"falling, single point"
O=C(c1cccc(F)c1)n1nnc2ccccc21,6.31,"falling, partial curve, poor fit"
N[C@H](C(=O)O)c1ccc(C(=O)O)c(O)c1,12.59,"falling, partial curve"
O=C1OC2(c3cc(Br)c(O)c(Br)c3Oc3c2cc(Br)c(O)c3Br)c2c(Cl)c(Cl)c(Cl)c(Cl)c21,19.95,"falling, partial curve, poor fit"
CN(C)c1ccc(NC(=S)c2ccccn2)cc1,7.943,"falling, partial curve"
Cc1cc(C)nc(/N=c2/ssnc2Cl)c1,12.59,"rising, single point"
O=C(NCc1cccs1)c1nc2c(nnn2Cc2ccccc2Cl)c(=O)[nH]1,0.3162,"falling, full curve"
COC(=O)CSc1nnc(C)n1-c1cccc(C#N)c1,0.007943,"rising, full curve, poor fit"
O=C(c1cc(C(F)(F)F)cc(C(F)(F)F)c1)N1CCC2(CCCN(c3ccccn3)C2)CC1,12.59,"rising, single point"
CCOC(=O)c1ccccc1NC(=O)CC1Nc2ccccc2NC1=O (configuration not stated),3.162,"rising, full curve"
CCc1ccccc1NC(=O)CSC1=C(C#N)C(c2ccc3c(c2)OCO3)C2=C(CCCC2=O)N1 (configuration not stated),0.003162,"falling, full curve, poor fit"
COc1ccccc1CN1CCCC2(CCN(C(=O)c3ccncc3)CC2)C1,12.59,"rising, partial curve"
O=C(Nc1ccc(Cl)cc1)Nc1ccc2c(c1)N1CCN=C1S2,7.943,"falling, partial curve"
Cc1ccc(Cn2ccc(NC(=O)c3cc(CC(C)C)on3)n2)cc1,12.59,"falling, partial curve"
CCOC(=O)c1c(C2COc3ccccc3O2)csc1N (configuration not stated),3.162,"falling, full curve, poor fit"
CN(Cc1c(F)cccc1Cl)c1nnnn1-c1ccccc1,0.003162,"falling, full curve, poor fit"
CCOC(=O)N1CCC(Nc2c(-c3ccc(C)cc3)c(=O)c2=O)CC1,0.1259,"falling, full curve"
O=C(Nc1ccccc1)N[C@H]1C[C@H](C(=O)O)Nc2cc(Cl)cc(Cl)c21,0.01585,"rising, full curve, poor fit"
C1=C(c2ccccc2)CCN(c2nc3ccccc3n3cnnc23)C1,6.31,"falling, partial curve"
CC1(C)[C@@H]2CC[C@@]1(CS(=O)(=O)Nc1ccccc1)C(=O)C2,0.03162,"falling, full curve"

2 of the entries, repeated:

Compound	AC50 (µM)	remark
CCc1ccccc1NC(=O)c1cc2sccc2n1C	12.59	falling, single point
COc1ccccc1CN1CCCC2(CCN(C(=O)c3ccncc3)CC2)C1	12.59	rising, partial curve

The results are deposited in PubChem (AID912; NCATS, 2007).